According to US6774131B1, “Remedies for endothelin-induced diseases” (Yamanouchi Pharmaceutical Co., Ltd., priority 2000, dated 2004):
For part of its entries the source gives two or more results. The list is limited to them. The source may hold further records. The records of an entry differ, and nothing given here explains why; some may be repeats, others may stem from another dose, organism or construct than stated.

Test: Plasma concentration when orally administered to humans
Conditions: oral, tested form: K salt

AUC ratio Compound 1 (10 mg)/ABT-627 (20 mg): about 18 fold and 18 fold
SMILES: COc1ccccc1Oc1c(NS(=O)(=O)C=Cc2ccccc2)nc(-c2ncccn2)nc1OC.[K] [Compound 1, N-[6-methoxy-5-(2-methoxyphenoxy)-2-(2-pyrimidinyl)-4-pyrimidinyl]-2-phenylethenesulfoneamide•potassium salt]
